Four substances from paper PMC5686148 can be followed below.

The chains behind the UniProt entries cited, without tags or fusion partners.
UniProt P11413: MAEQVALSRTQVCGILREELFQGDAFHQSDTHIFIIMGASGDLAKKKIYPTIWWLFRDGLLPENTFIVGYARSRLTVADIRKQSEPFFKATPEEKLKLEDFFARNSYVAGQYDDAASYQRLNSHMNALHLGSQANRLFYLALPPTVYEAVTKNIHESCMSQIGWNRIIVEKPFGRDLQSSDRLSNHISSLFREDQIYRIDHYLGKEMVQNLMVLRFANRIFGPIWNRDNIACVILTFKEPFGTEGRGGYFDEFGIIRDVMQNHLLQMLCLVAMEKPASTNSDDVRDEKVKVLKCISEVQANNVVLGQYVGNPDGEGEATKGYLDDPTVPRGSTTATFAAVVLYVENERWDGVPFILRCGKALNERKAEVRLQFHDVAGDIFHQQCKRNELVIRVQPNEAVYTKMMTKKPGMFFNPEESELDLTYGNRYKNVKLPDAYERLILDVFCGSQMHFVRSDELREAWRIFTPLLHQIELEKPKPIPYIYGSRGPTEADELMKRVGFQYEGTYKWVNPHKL
UniProt P53350: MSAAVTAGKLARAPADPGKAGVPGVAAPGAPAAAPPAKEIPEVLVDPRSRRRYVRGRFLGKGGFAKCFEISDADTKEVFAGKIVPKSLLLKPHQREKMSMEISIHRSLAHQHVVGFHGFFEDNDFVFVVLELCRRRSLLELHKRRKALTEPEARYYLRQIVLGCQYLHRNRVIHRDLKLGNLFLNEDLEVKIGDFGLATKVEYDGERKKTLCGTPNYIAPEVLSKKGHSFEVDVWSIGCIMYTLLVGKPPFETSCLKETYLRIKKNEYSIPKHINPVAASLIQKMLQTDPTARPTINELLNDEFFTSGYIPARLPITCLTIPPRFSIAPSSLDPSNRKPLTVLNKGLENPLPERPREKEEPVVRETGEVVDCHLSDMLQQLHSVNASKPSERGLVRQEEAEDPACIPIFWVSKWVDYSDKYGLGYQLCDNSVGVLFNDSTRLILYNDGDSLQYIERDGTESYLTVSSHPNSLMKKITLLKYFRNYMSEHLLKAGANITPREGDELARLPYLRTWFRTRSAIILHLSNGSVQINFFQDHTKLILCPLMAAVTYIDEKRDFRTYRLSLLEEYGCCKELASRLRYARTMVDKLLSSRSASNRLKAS

The target in test [1] is G6PD wild type overexpressed in HeLa cells stably expressing shG6PD (UniProt P11413). In words: cross-linking; 1 mM disuccinimidyl suberate (DSS) on HeLa cells in 20 mM HEPES pH 8.0, 37 °C, 30 min, western blot with anti-G6PD; cells with Plk1 overexpression, tet-inducible shPlk1, synchronised, or with 1 μM BI2536; also Hep3B cells. Background: In western blotting, separated proteins are transferred to a membrane and probed.

For test [2], the target named is Flag-G6PD wild type (UniProt P11413). The experiment in a line: co-IP; 293T cells transfected (for Fig. 5g NTC- or shPlk1-expressing 293T); lysates (20 mM HEPES pH 7.5, 150 mM NaCl, 2 mM EDTA, 1.5 mM MgCl2, 1% NP40) immunoprecipitated with anti-Flag antibody or IgG at 4 °C, western blot.
For test [3] the target is unchanged. The experiment in a line: co-IP; HeLa cells transfected with eGFP-G6PD and Flag-G6PD; lysates immunoprecipitated with anti-Flag antibody, western blot; with pSin-Plk1 co-transfection, BI2536 for 16 h, or nocodazole.
Test [4] concerns the target Flag-Plk1 (Polo-like kinase 1) (UniProt P53350). The experiment in a line: co-IP; 293T cells transfected (for Fig. 5g NTC- or shPlk1-expressing 293T); lysates (20 mM HEPES pH 7.5, 150 mM NaCl, 2 mM EDTA, 1.5 mM MgCl2, 1% NP40) immunoprecipitated with anti-Flag antibody or IgG at 4 °C, western blot.
In test [5] the target is endogenous G6PD (human (endogenous in HeLa)) (UniProt P11413). In words: co-IP; endogenous proteins, HeLa lysate, immunoprecipitation with anti-Plk1 or anti-G6PD, western blot; in Fig. 4b lysate treated with or without PP2A phosphatase before IP with anti-Plk1.

No constants are given. Whether binding was seen depends on the method and setting. Binding seen in cells or lysates may run through a third protein. Some results given as binding are weak or reduced against the parent protein; the word gives no strength.

As for “G6PD wild type overexpressed in HeLa cells stably expressing shG6PD (from UniProt P11413 1-515) (enzyme)”, the binding entry in test [1] is recorded as “binds”.

For “Plk1 expressed from pSin-Plk1 (from UniProt P53350 1-603) (enzyme)”, the binding result with Flag-G6PD wild type [2] is reported as “binds”.

“eGFP-G6PD (glucose-6-phosphate dehydrogenase) (from UniProt P11413 1-515) (enzyme)”: the binding result (in the test with Flag-G6PD wild type [3]; with Flag-G6PD wild type [2]; in test [4]) was “binds” each time.

For the substance “endogenous Plk1 (from UniProt P53350 1-603) (enzyme)”, the binding entry in test [5] is recorded as “binds”.
